## Results of single-concentration screens

By UniProt entry, the sequences of proteins in these tests, tags left out. Residues count along the entry.
UniProt Q8IDJ8, 1-583: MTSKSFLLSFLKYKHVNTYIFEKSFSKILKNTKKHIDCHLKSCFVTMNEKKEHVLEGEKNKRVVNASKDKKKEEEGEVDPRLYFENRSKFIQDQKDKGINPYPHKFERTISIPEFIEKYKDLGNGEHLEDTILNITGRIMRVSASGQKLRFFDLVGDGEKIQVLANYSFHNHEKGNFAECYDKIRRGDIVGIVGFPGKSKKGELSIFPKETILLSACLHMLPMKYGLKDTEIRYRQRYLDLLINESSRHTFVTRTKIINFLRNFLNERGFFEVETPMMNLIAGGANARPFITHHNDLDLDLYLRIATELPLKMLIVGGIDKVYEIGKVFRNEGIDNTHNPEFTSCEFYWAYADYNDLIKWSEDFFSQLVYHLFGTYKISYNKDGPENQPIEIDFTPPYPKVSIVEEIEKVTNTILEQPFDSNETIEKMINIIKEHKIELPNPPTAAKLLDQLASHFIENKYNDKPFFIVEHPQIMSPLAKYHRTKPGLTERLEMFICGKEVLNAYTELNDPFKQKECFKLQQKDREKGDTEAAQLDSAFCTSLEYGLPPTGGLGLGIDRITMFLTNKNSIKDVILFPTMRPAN
UniProt P9WPC5, whole entry: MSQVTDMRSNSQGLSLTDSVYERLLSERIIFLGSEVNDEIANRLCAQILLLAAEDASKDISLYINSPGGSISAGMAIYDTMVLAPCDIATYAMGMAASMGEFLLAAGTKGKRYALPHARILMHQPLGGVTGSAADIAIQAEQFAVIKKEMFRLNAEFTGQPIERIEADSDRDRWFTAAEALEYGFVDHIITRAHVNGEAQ
UniProt P9WPC3, whole entry partner: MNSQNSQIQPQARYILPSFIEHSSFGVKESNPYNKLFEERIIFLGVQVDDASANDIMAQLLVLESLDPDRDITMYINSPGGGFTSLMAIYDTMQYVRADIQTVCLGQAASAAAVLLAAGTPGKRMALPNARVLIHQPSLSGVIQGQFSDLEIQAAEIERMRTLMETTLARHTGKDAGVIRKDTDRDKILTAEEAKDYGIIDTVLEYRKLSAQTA
UniProt P9WFT3, whole entry: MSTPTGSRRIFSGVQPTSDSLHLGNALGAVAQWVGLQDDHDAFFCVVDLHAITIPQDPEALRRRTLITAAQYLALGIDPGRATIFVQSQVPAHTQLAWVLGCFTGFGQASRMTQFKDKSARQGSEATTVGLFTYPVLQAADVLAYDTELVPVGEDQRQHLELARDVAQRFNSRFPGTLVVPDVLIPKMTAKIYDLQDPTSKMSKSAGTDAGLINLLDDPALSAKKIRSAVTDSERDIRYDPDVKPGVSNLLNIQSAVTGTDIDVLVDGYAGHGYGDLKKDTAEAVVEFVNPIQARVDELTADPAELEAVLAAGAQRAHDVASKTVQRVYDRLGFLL

PfKRS1: 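Enzyme assay of the cytosolic lysyl-tRNA synthetase in 384-well plates, read by luminescence. Target: Lysine-tRNA ligase, Plasmodium falciparum 3D7 (UniProt Q8IDJ8). Concentration: 30 µM. Direction is inferred from only a few compounds that gave an IC50; most scored high, so higher reads as stronger inhibition. Of about 69,000 compounds tested this way, about 49 (0.071%) reached 50% or more in at least one test.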
ClpP1P2: 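Protease assay of ClpP1P2, read by the AMC dye that it sets free. Target: ClpP1P2, Mycobacterium tuberculosis (UniProt P9WPC5 and UniProt P9WPC3). Compounds at 50 µM. Higher reads as stronger inhibition, judged from the few compounds that gave an IC50. Most other retested compounds had strongly negative values. Size under these conditions: about 69,000 compounds, about 10 of them at 50% or above in at least one test.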
MtTrpRS: 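Tryptophan-tRNA ligase, Mycobacterium tuberculosis (UniProt P9WFT3). Enzyme assay of tryptophanyl-tRNA synthetase; the read-out is not stated. Tested at 10 µM. Higher most likely means stronger inhibition; the record gives no direction and few retests gave an IC50. Size under these conditions: about 65,000 compounds, about 64 of them at 50% or above in at least one test.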

Results are given as percent effect.
The controls that fix the scale are not given in the record; negative values are as filed.
Compounds were drawn at random from those tested, without regard to their results.

| # | structure | PfKRS1 | ClpP1P2 | MtTrpRS |
|---|---|---|---|---|
| 1 | `Cc1cc(NCc2csc(C)n2)no1` | -4.055% | -2.305% | 1.709% |
| 2 | `COc1ccc(CN2C[C@@H]3CN(S(=O)(=O)C4CC4)C[C@@H]3C2=O)cc1` | 7.204% | -5.997% | 2.344% |
| 3 | `CCc1nc(N2CCC3(CCC(=O)N(CCCO)C3)CC2)no1` | 1.843% | 24.66% | 0.25% |
| 4 | `CC(=O)NCC1CCN(C(=O)NCc2ccc3c(c2)OCCO3)CC1` | -0.9525% | -0.4039% | -1.854% |
| 5 | `COc1cc(C)c(C)cc1S(=O)(=O)NCC(O)c1cccn1C` (stereo not shown) | 2.297% | -1.464% | 0.5319% |
| 6 | `CN(C)[C@@H]1CO[C@H](CNC(=O)Nc2ccccc2)[C@H]1O` | 6.986% | 1.891% | -8.27% |
| 7 | `COCCC1(C(=O)NCCc2nncn2C2CC2)CCC1` | 3.148% | 12.17% | -6.599% |
| 8 | `Cc1cc(C)n(CC2CCCCN2C(=O)c2ccc(C(N)=O)cc2)n1` (stereo not shown) | 1.832% | -5.16% | 1.183% |
| 9 | `COCc1ncc(-c2nccn2CCN(C)C)cn1` | -2.387% | -8.615% | 2.308% |
| 10 | `CCOc1ccc(CN(C)C(=O)COc2ccc(C)nc2)cc1` | 5.039% | 1.876% | 0.7261% |
| 11 | `CNC(=O)[C@H]1C[C@@H]2CN(S(=O)(=O)c3ccc(OC)cc3)C[C@@H]2N1C` | 1.694% | -3.941% | -5.533% |
| 12 | `Cn1cc(NC(=O)N2CCCC2c2cccnc2)ccc1=O` (stereo not shown) | 4.137% | -4.056% | 4.021% |
| 13 | `Cc1nnc(SCC(=O)Nc2csc3nc(=O)c(C)nn23)s1` | -4.182% | -8.766% | -0.6221% |
| 14 | `Cc1nn(CC(O)CN2CCc3ccccc3C2)c(=O)c2ccccc12` (stereo not shown) | -3.53% | -1.276% | 0.1032% |
| 15 | `CCc1[nH]c2ccc(CNC(=O)c3cnc(N)nc3C)cc2c1C` | 3.486% | 4.017% | -0.1805% |
| 16 | `O=C(c1cccnc1)N1CCN(c2ccnc3ccsc23)CC1` | 0.3753% | -3.195% | -0.7048% |
| 17 | `Cc1noc(CC2CCN(Cc3ccc(CCC(C)(C)O)cc3)CC2)n1` | 8.043% | -11.89% | 1.493% |
| 18 | `O=C(NCCN1CCOC1=O)c1ccc2sccc2c1` | 0.3535% | -4.721% | -2.182% |
| 19 | `O=S(=O)(NC1CCC2(CC1)OCCO2)c1ccccc1Br` | 7.008% | 1.562% | -3.216% |
| 20 | `Cc1ccc(S(=O)(=O)NCc2[nH]ncc2Br)cc1F` | 6.318% | 7.356% | 0% |
| 21 | `CCCn1nc(C)c(CNS(=O)(=O)NCc2ccccc2)c1C` | 4.522% | -7.507% | 0.618% |
| 22 | `CC(C)CCN1C(=O)C2(NC(=O)c3ccccc3O2)c2ccccc21` (stereo not shown) | 1.279% | -11.23% | 1.716% |
| 23 | `COc1cc(OC)cc(-c2cccc3c2OC(CN)C3)c1` (stereo not shown) | 3.614% | -7.637% | -1.961% |
| 24 | `CCC(=O)c1ccc(OCC(=O)N2CCNCC2C(=O)NC2CC2)cc1` (stereo not shown) | 5.49% | 0.2818% | -2.23% |
| 25 | `Cc1cc(C(=O)N2CCCC2)ccc1NCC(=O)N1CCCCC1C` (stereo not shown) | 0.2351% | -0.9568% | 8.267% |
| 26 | `CC(C)CC(=O)Nc1ccc(Oc2ccsc2C(=O)O)cc1` | 7.271% | -12.91% | -7.863% |
| 27 | `Cc1ccc(NC(=O)NC(C)C(=O)N2CCS(=O)(=O)CC2)cc1` (stereo not shown) | 4.764% | -5.062% | 5.65% |
| 28 | `O=C(c1ccc(O)cn1)N1CCOC(Cc2cccc(C(F)(F)F)c2)C1` (stereo not shown) | -9.686% | 10.75% | 1.991% |
| 29 | `COCCNC(=O)N1CCCC(COc2ccccc2)C1` (stereo not shown) | 10.08% | 5.115% | 2.583% |
| 30 | `CCC1CN(CC(=O)NCc2ccco2)CCO1` (stereo not shown) | -0.6124% | 12.51% | -7.026% |
| 31 | `CCN1CC(CN(C)Cc2nc(-c3ccoc3)oc2C)CC1=O` (stereo not shown) | -1.513% | -14.97% | 2.79% |
| 32 | `Cc1oc(C)c(C(=O)N2CCN(Cc3cscn3)CC2)c1C` | 0.4199% | -53.77% | -7.774% |
| 33 | `CCC(C)N(Cc1cccnc1)C(=O)c1ccc(OC)cc1O` (stereo not shown) | 1.547% | -8.001% | -0.3079% |
| 34 | `Fc1cnc(N2CCCC3(CCN(Cc4cccs4)C3)C2)nc1` (stereo not shown) | 3.249% | 3.261% | -2.215% |
| 35 | `CC(C)(C)c1cnc(CN2CCCS(=O)(=O)CC2)o1` | 1.818% | 1.036% | 0.6988% |
| 36 | `Cc1cnn(CC2CN(Cc3nnc(C4CC4)n3C)CCO2)c1` (stereo not shown) | 1.074% | -24.4% | -7.263% |
| 37 | `COc1nc2cc(C)ccc2cc1CN(C)Cc1n[nH]c2c1CCCC2` | 1.238% | -21.82% | 0.2764% |
| 38 | `Nc1ncncc1-c1noc([C@@H]2CCCN2Cc2cccnc2)n1` | 3.455% | -2.28% | -2.959% |
| 39 | `CC(NCc1nnc2n1CCCC2)C(=O)N1CCc2sccc2C1` (stereo not shown) | 1.273% | -2.891% | 5.508% |
| 40 | `O=C(Cc1cnc(-n2cccc2)s1)NCCCO` | 2.478% | -8.74% | -0.5424% |

For reference, 2 entries once more:

structure,PfKRS1,ClpP1P2,MtTrpRS
CC(C)(C)c1cnc(CN2CCCS(=O)(=O)CC2)o1,1.818%,1.036%,0.6988%
CN(C)[C@@H]1CO[C@H](CNC(=O)Nc2ccccc2)[C@H]1O,6.986%,1.891%,-8.27%

The values are deposited in ChEMBL (CHEMBL3988442, “University of Dundee, Small-Polar-MMV Screening Library” (2021)).